Where two headings read alike, the source gives them in different places. Some results were stated once for a whole list of compounds, not compound by compound.
How the values were obtained:
Pyricularia oryzae = format: in vivo; settings: application rate 63 ppm
Plasmopara viticola = assay: Action against Plasmopara viticola (downy mildew of grape vine), potted grape vines sprayed before infection; settings: grape vines "Müller Thurgau", application rate 16 ppm, infected 8 days after spraying, visual assessment; untreated control 70%
Puccinia recondita = assay: Action against Puccinia recondita (leaf rust of wheat), wheat seedlings treated after infection; format: in vivo; settings: wheat seedlings "Kanzler", application rate 63 ppm, treated 24 hours after infection, assessed after a further 8 days; untreated control 65%
Prodenia litura = Prodenia litura (Egyptian cotton leafworm), contact action; format: in vivo; settings: treated filters, 5 caterpillars, mortality after 24 hours
Nephotettix cincticeps = Nephotettix cincticeps (green rice leafhopper), contact action; format: in vivo; settings: treated filter disks, 5 adult leafhoppers, mortality after 24 hours
Tetranychus telarius = Tetranychus telarius (greenhouse red spider mite), contact action; format: in vivo; settings: infested dwarf beans in pots, degree of control after 5 days in the greenhouse
Aphis fabae = Aphis fabae (black bean aphid), contact action; format: in vivo; settings: infested dwarf beans (Vicia faba), aqueous preparation, mortality after 24 hours

SMILES: CO/C=C(/C(=O)OC)c1cccc(Cl)c1COc1ccn(-c2ccc(Cl)cc2Cl)n1 [Compound 4]
- disease level of the treated plants (Pyricularia oryzae; rice seedlings "Tai Nong 67", infected 24 hours after spraying, 6 days, untreated control 85%): ≤ 15%
- disease level of the treated plants (Plasmopara viticola): ≤ 15%
- disease level of the treated plants (Puccinia recondita): ≤ 15%

SMILES: CO/C=C(/C(=O)OC)c1ccccc1COc1ncn(-c2ccccc2Cl)n1 [Compound 12, Methyl α-(2-(N′-(o-chlorophenyl)-triazolyl-3′-oxymethyl)-phenyl)-β-methoxyacrylate]
- disease level of the treated plants (Plasmopara viticola): ≤ 15%

SMILES: COC=C(C(=O)OC)c1ccccc1COc1cn(-c2ccc(Cl)cc2)nc1C [Compound 24]
- limit concentration (lowest concentration causing 80-100% inhibition or mortality) (Prodenia litura): ≤ 0.4 mg

SMILES: COC=C(C(=O)OC)c1ccccc1COc1cnn(-c2ccc(Cl)cc2)c1C [Compound 25]
- limit concentration (lowest concentration causing 80-100% inhibition or mortality) (Nephotettix cincticeps): ≤ 0.4 mg
- limit concentration (lowest concentration causing 80-100% inhibition or mortality) (Tetranychus telarius): ≤ 400 ppm

SMILES: COC=C(C(=O)OC)c1ccccc1COc1ccn(-c2ncccc2Cl)n1 [Compound 27]
- limit concentration (lowest concentration causing 80-100% inhibition or mortality) (Nephotettix cincticeps): ≤ 0.4 mg

SMILES: COC=C(C(=O)OC)c1ccccc1COc1ccn(-c2ccc(Br)cc2)n1 [Compound 29]
- limit concentration (lowest concentration causing 80-100% inhibition or mortality) (Aphis fabae): ≤ 400 ppm

SMILES: COC=C(C(=O)OC)c1ccccc1COc1ccn(-c2ccc(I)cc2)n1 [Compound 30]
- limit concentration (lowest concentration causing 80-100% inhibition or mortality) (Prodenia litura): ≤ 0.4 mg
- limit concentration (lowest concentration causing 80-100% inhibition or mortality) (Tetranychus telarius): ≤ 400 ppm

SMILES: COC=C(C(=O)OC)c1ccccc1COc1ccn(-c2ccc(I)cc2Cl)n1 [Compound 31]
- limit concentration (lowest concentration causing 80-100% inhibition or mortality) (Tetranychus telarius): ≤ 400 ppm

SMILES: COC=C(C(=O)OC)c1ccccc1COc1ccn(-c2ccc(Br)c(Cl)c2)n1 [Compound 38]
- limit concentration (lowest concentration causing 80-100% inhibition or mortality) (Nephotettix cincticeps): ≤ 0.4 mg
- limit concentration (lowest concentration causing 80-100% inhibition or mortality) (Prodenia litura): ≤ 0.4 mg

SMILES: COC=C(C(=O)OC)c1ccccc1COc1ccn(-c2ccc(C#N)c(Cl)c2)n1 [Compound 39]
- disease level of the treated plants (Pyricularia oryzae; corresponding test, rice seedlings, untreated control 65%): ≤ 15%

SMILES: COC=C(C(=O)OC)c1ccccc1COc1ncn(-c2ccc(Cl)cc2C)n1 [Compound 41]
- limit concentration (lowest concentration causing 80-100% inhibition or mortality) (Tetranychus telarius): ≤ 400 ppm

SMILES: COC=C(C(=O)OC)c1ccccc1COc1ncn(-c2ccc(C(F)(F)F)cc2)n1 [Compound 44]
- limit concentration (lowest concentration causing 80-100% inhibition or mortality) (Nephotettix cincticeps): ≤ 0.4 mg

SMILES: COC=C(C(=O)OC)c1ccccc1COc1ccn(-c2ccc(Cl)cc2Br)n1 [Compound 52]
- limit concentration (lowest concentration causing 80-100% inhibition or mortality) (Tetranychus telarius): ≤ 400 ppm

SMILES: COC=C(C(=O)OC)c1ccccc1COc1ccn(-c2ccc(C)c(Cl)c2)n1 [Compound 53]
- limit concentration (lowest concentration causing 80-100% inhibition or mortality) (Tetranychus telarius): ≤ 400 ppm

SMILES: COC=C(C(=O)OC)c1ccccc1COc1ccn(-c2ccc(C)c(C)c2)n1 [Compound 54]
- limit concentration (lowest concentration causing 80-100% inhibition or mortality) (Aphis fabae): ≤ 400 ppm
- limit concentration (lowest concentration causing 80-100% inhibition or mortality) (Tetranychus telarius): ≤ 400 ppm

SMILES: CCc1ccc(-n2ccc(OCc3ccccc3C(=COC)C(=O)OC)n2)cc1 [Compound 55]
- limit concentration (lowest concentration causing 80-100% inhibition or mortality) (Tetranychus telarius): ≤ 400 ppm

SMILES: COC=C(C(=O)OC)c1ccccc1COc1ccn(-c2ccc(C(C)C)cc2)n1 [Compound 56]
- limit concentration (lowest concentration causing 80-100% inhibition or mortality) (Aphis fabae): ≤ 400 ppm
- limit concentration (lowest concentration causing 80-100% inhibition or mortality) (Tetranychus telarius): ≤ 400 ppm

SMILES: COC=C(C(=O)OC)c1ccccc1COc1ccn(-c2ccc(Oc3ccccc3)cc2)n1 [Compound 57]
- limit concentration (lowest concentration causing 80-100% inhibition or mortality) (Aphis fabae): ≤ 400 ppm
- limit concentration (lowest concentration causing 80-100% inhibition or mortality) (Tetranychus telarius): ≤ 400 ppm

SMILES: COC=C(C(=O)OC)c1ccccc1COc1cc(C(F)(F)F)n(C(C)C)n1 [Compound 58]
- limit concentration (lowest concentration causing 80-100% inhibition or mortality) (Aphis fabae): ≤ 400 ppm
- limit concentration (lowest concentration causing 80-100% inhibition or mortality) (Tetranychus telarius): ≤ 400 ppm

SMILES: COC=C(C(=O)OC)c1ccc(OC)cc1COc1ccn(-c2ccc(Cl)cc2)n1 [Compound 59]
- limit concentration (lowest concentration causing 80-100% inhibition or mortality) (Nephotettix cincticeps): ≤ 0.4 mg
- limit concentration (lowest concentration causing 80-100% inhibition or mortality) (Tetranychus telarius): ≤ 400 ppm
